Measurements published in US20260048051A1, “TREATMENT OF INFLAMMATORY BOWEL DISEASE” (Atomwise Inc., priority 2024, published 2026).
Some results were stated once for a whole list of compounds, not compound by compound.

Test system: anti-CD40-induced inflammatory bowel disease (IBD)
Assay: Anti-CD40-induced mouse model of inflammatory bowel disease (IBD)
Type: in vivo, RAGN12 mice
Protocol: This study was conducted in accordance with the Inotiv Boulder test facility standard operating procedures (SOPs), the World Health Organization Quality Practices in Basic Biomedical Research guidelines, and in compliance with all state and federal regulations, including USDA Animal Welfare Act 9 CFR Parts 1-3. Federal Register 39129, Jul. 22, 1993. This study was conducted in accordance with The Guide for the Care & Use of Laboratory Animals (8th Edition) and therefore in accordance with all Inotiv Boulder IACUC approved policies.
Prior to the start of the study, 6-7 week old, RAGN12 mice (Taconics) were acclimated for approximately 4 days. On study day −1, mice were weighed and randomized into treatment groups based on body weight. […] Bodyweight was measured daily on study days 1-6.
On day 7, the study was terminated; mice were anesthetized with Isoflurane and bled to exsanguination followed by cervical dislocation. The entire colon was removed, measured, and weighed. […] Histopathology samples were evaluated for edema, inflammation (extent of macrophage, lymphocyte and polymorphonuclear (PMN) cell infiltration), gland loss, erosion, and hyperplasia.
Overall efficacy of test articles is based on a ratio of colon weight to length, and colon histopathology (FIGS. 6A and 6B). Additional readouts of the model support activity of an exemplary compound in IBD (FIG. 6C-6I).

Compound | histopathology, efficacious dose | colon weight:length, efficacious dose
C[C@@H](c1ccc(Nc2cc(Nc3ncccc3S(C)(=O)=O)ncn2)nc1)N1CC2(COC2)C1 [Compound 1, (S)—N^4-(5-(1-(2-oxa-6-azaspiro[3.3]heptan-6-yl)ethyl)pyridin-2-yl)-N^6-(3-(methylsulfonyl)pyridin-2-yl)pyrimidine-4,6-diamine] | 10-200 mpk | –
C[C@@H](c1ccc(Nc2cc(Nc3ncc(F)cc3S(C)(=O)=O)ncn2)nc1)N1CC2(COC2)C1 [Compound 2, (S)—N^4-(5-(1-(2-oxa-6-azaspiro[3.3]heptan-6-yl)ethyl)pyridin-2-yl)-N^6-(5-fluoro-3-(methylsulfonyl)pyridin-2-yl)pyrimidine-4,6-diamine] | – | 10-200 mpk
